# In the supplement of paper PMC8728848:
# Some of the results follow.
# B1: Adiponectin (Rattus norvegicus), Q8K3R4 (protein)
# chain: MLLLQALLFLLILPSHEGITATEGPGALVPPPKETCAGWMAGIPGYPGHNGIPGRDGRDGTPGEKGEKGDAGVLGPKGDPGDAGMTGAEGPRGFPGTPGRKGEPGEAAYMYHSAFSVGLETRVTVPNVPIRFTKIFYNQQNHYDGSTGKFHCNIPGLYYFSYHITVYMKDVKVSLFKKDKAVLFTYDQYQEKNVDQASGSMLLHLEVGDQVWLQVYGEGDNNGLYADNVNDSTFTGFLLYHDTN
# Key:
# Assay in all cases: glycan array binding signal (z-score within array); higher = stronger binding
# Settings in all cases: glycan notation: IUPAC condensed, linker removed
# [1] = target: Neu5Ac(a2-6)Gal(b1-4)GlcNAc(b1-2)Man(a1-3)[Man(a1-6)]Man(b1-4)GlcNAc(b1-4)GlcNAc
# How it was run: (§1)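 Arrays were curated from the Consortium for Functional Glycomics database, 3228 in total, and kept only where the protein sequence was available. Binding is expressed as a within-array Z-score. This score was averaged across arrays of the same protein sequence at different concentrations or buffers and across linkers, and negative values can be read as non-binding.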
# [2] = target: Neu5Ac(a2-6)Gal(b1-4)GlcNAc(b1-2)Man(a1-3)[Neu5Ac(a2-6)Gal(b1-4)GlcNAc(b1-2)Man(a1-6)]Man(b1-4)GlcNAc(b1-4)GlcNAc
# How it was run: as §1
# [3] = target: Neu5Ac(a2-6)Gal(b1-4)GlcNAc(b1-2)Man(a1-6)Man(b1-4)GlcNAc(b1-4)GlcNAc
# How it was run: as §1
# [4] = target: Neu5Ac(a2-6)Gal(b1-4)GlcNAc(b1-2)Man(a1-6)[Gal(b1-4)GlcNAc(b1-2)Man(a1-3)]Man(b1-4)GlcNAc(b1-4)GlcNAc
# How it was run: as §1
# [5] = target: Neu5Ac(a2-6)Gal(b1-4)GlcNAc(b1-2)Man(a1-6)[GlcNAc(b1-2)Man(a1-3)]Man(b1-4)GlcNAc(b1-4)GlcNAc
# How it was run: as §1
# [6] = target: Neu5Ac(a2-6)Gal(b1-4)GlcNAc(b1-2)Man(a1-6)[Man(a1-3)]Man(b1-4)GlcNAc(b1-4)GlcNAc
# How it was run: as §1
# [7] = target: Neu5Ac(a2-6)Gal(b1-4)GlcNAc(b1-3)Gal(b1-3)GlcNAc
# How it was run: as §1
# [8] = target: Neu5Ac(a2-6)Gal(b1-4)GlcNAc(b1-3)Gal(b1-4)GlcNAc
# How it was run: as §1
# [9] = target: Neu5Ac(a2-6)Gal(b1-4)GlcNAc(b1-3)Gal(b1-4)GlcNAc(b1-3)Gal(b1-4)GlcNAc
# How it was run: as §1
# [10] = target: Neu5Ac(a2-6)Gal(b1-4)GlcNAc(b1-3)Gal(b1-4)[Fuc(a1-3)]GlcNAc(b1-3)Gal(b1-4)[Fuc(a1-3)]GlcNAc
# How it was run: as §1
# [11] = target: Neu5Ac(a2-6)Gal(b1-4)GlcNAc(b1-3)GalNAc
# How it was run: as §1
# [12] = target: Neu5Ac(a2-6)Gal(b1-4)GlcNAc6S
# How it was run: as §1
# Neu5Ac(a2-6)GalNAc = target: Neu5Ac(a2-6)GalNAc
# How it was run: as §1
# [13] = target: Neu5Ac(a2-6)GalNAc(b1-4)GlcNAc
# How it was run: as §1
# [14] = target: Neu5Ac(a2-6)GlcNAc(b1-4)GlcNAc
# How it was run: as §1
# [15] = target: Neu5Ac(a2-6)GlcNAc(b1-4)GlcNAc(b1-4)GlcNAc
# How it was run: as §1
# Neu5Ac(a2-8)Neu5Ac = target: Neu5Ac(a2-8)Neu5Ac
# How it was run: as §1
# [16] = target: Neu5Ac(a2-8)Neu5Ac(a2-3)Gal(b1-4)Glc
# How it was run: as §1
# [17] = target: Neu5Ac(a2-8)Neu5Ac(a2-3)[GalNAc(b1-4)]Gal(b1-4)Glc
# How it was run: as §1
# [18] = target: Neu5Ac(a2-8)Neu5Ac(a2-8)Neu5Ac
# How it was run: as §1
# [19] = target: Neu5Ac(a2-8)Neu5Ac(a2-8)Neu5Ac(a2-3)Gal(b1-4)Glc
# How it was run: as §1
# [20] = target: Neu5Ac(a2-8)Neu5Ac(a2-8)Neu5Ac(a2-3)[GalNAc(b1-4)]Gal(b1-4)Glc
# How it was run: as §1
# [21] = target: Neu5Ac(a2-8)Neu5Ac(a2-8)Neu5Ac(a2-8)Neu5Ac(a2-3)[GalNAc(b1-4)]Gal(b1-4)Glc
# How it was run: as §1
# [22] = target: Neu5Ac(b2-6)Gal(b1-4)GlcNAc
# How it was run: as §1
# Neu5Ac(b2-6)GalNAc = target: Neu5Ac(b2-6)GalNAc
# How it was run: as §1
# [23] = target: Neu5Ac9Ac(a2-3)Gal(b1-3)GlcNAc
# How it was run: as §1
# [24] = target: Neu5Ac9Ac(a2-3)Gal(b1-4)GlcNAc
# How it was run: as §1
# [25] = target: Neu5Ac9Ac(a2-6)Gal(b1-4)GlcNAc
# How it was run: as §1
# [26] = target: Neu5Gc(a2-3)Gal(b1-3)GlcNAc
# How it was run: as §1
# [27] = target: Neu5Gc(a2-3)Gal(b1-3)[Fuc(a1-4)]GlcNAc
# How it was run: as §1
# Neu5Gc(a2-3)Gal(b1-4)Glc = target: Neu5Gc(a2-3)Gal(b1-4)Glc
# How it was run: as §1
# [28] = target: Neu5Gc(a2-3)Gal(b1-4)GlcNAc
# How it was run: as §1
# [29] = target: Neu5Gc(a2-3)Gal(b1-4)[Fuc(a1-3)]GlcNAc
# How it was run: as §1
# [30] = target: Neu5Gc(a2-6)Gal(b1-4)GlcNAc
# How it was run: as §1
# Neu5Gc(a2-6)GalNAc = target: Neu5Gc(a2-6)GalNAc
# How it was run: as §1
# [31] = target: Neu5Gc(b2-6)Gal(b1-4)GlcNAc
# How it was run: as §1
binder,measurement,setting,value
B1,glycan array binding signal (z-score),[1],0.188
same,glycan array binding signal (z-score),[2],1.03
same,glycan array binding signal (z-score),[3],-0.181
same,glycan array binding signal (z-score),[4],0.675
same,glycan array binding signal (z-score),[5],-0.838
same,glycan array binding signal (z-score),[6],-0.178
same,glycan array binding signal (z-score),[7],-0.745
same,glycan array binding signal (z-score),[8],-0.428
same,glycan array binding signal (z-score),[9],-0.767
same,glycan array binding signal (z-score),[10],-0.64
same,glycan array binding signal (z-score),[11],2.46
same,glycan array binding signal (z-score),[12],0.441
same,glycan array binding signal (z-score),Neu5Ac(a2-6)GalNAc,-0.93
same,glycan array binding signal (z-score),[13],-0.235
same,glycan array binding signal (z-score),[14],-0.624
same,glycan array binding signal (z-score),[15],-0.632
same,glycan array binding signal (z-score),Neu5Ac(a2-8)Neu5Ac,0.121
same,glycan array binding signal (z-score),[16],0.466
same,glycan array binding signal (z-score),[17],0.022
same,glycan array binding signal (z-score),[18],-0.59
same,glycan array binding signal (z-score),[19],2.82
same,glycan array binding signal (z-score),[20],1.32
same,glycan array binding signal (z-score),[21],0.861
same,glycan array binding signal (z-score),[22],-0.165
same,glycan array binding signal (z-score),Neu5Ac(b2-6)GalNAc,1.01
same,glycan array binding signal (z-score),[23],-0.658
same,glycan array binding signal (z-score),[24],-0.748
same,glycan array binding signal (z-score),[25],1.53
same,glycan array binding signal (z-score),[26],0.08
same,glycan array binding signal (z-score),[27],0.219
same,glycan array binding signal (z-score),Neu5Gc(a2-3)Gal(b1-4)Glc,-0.534
same,glycan array binding signal (z-score),[28],-0.295
same,glycan array binding signal (z-score),[29],-1.11
same,glycan array binding signal (z-score),[30],-0.729
same,glycan array binding signal (z-score),Neu5Gc(a2-6)GalNAc,-0.529
same,glycan array binding signal (z-score),[31],1.03

# Reprinted at random: two entries already listed.
binder,measurement,setting,value
B1,glycan array binding signal (z-score),[8],-0.428
same,glycan array binding signal (z-score),Neu5Ac(a2-6)GalNAc,-0.93
